According to paper PMC10763615 (RSC Chemical Biology, 2023):

Test: general procedure: Fmoc solid-phase peptide synthesis; Fmoc-PAL AM resin (Novabiochem) pre-loaded with GSGSDYKDDDDK-NH2; DIC / Oxyma / collidine
Details: whole synthesis, analytical HPLC/UPLC
[1] = one disulfide bridge, sequence written open

MCDCHPLLCFLLC
crude HPLC purity: 40.37%

MCDCLHVVCFLVC
crude HPLC purity: 50.76%

MCFRWRLFHHLTPYC
crude HPLC purity [1]: 87.99%

MCFVYPRRQPLYWIC
crude HPLC purity [1]: 100%

MCHCFPIVCWFEC
crude HPLC purity: 32.77%

MCHCFPTICWLEC
crude HPLC purity: 73.32%

MCHCFPTICWLVC
crude HPLC purity: 44.09%

MCHFRPNKFTAWLPC
crude HPLC purity [1]: 61.38%

MCHPTRLHLWLCCNC
crude HPLC purity: 0%
final HPLC purity: 62.1%

MCHYCFNKLFLCC
crude HPLC purity: 0%
final HPLC purity: 91.9%

MCIFDNWLPFIFC
crude HPLC purity [1]: 41.9%

MCIFDNWLPFIYC
crude HPLC purity [1]: 79.77%

MCIFDTFLPFIFC
crude HPLC purity [1]: 71.94%

MCIFDTHMPFIPC
crude HPLC purity [1]: 92.48%

MCIFELNLPFIPC
crude HPLC purity [1]: 100%

MCILHGLIYWAPKQC
crude HPLC purity [1]: 30.18%

MCIRWPARQSLFWIC
crude HPLC purity [1]: 100%

MCIRWPARQSLFWLC
crude HPLC purity (one disulfide bridge, sequence written open, run 1): 61.38%
crude HPLC purity (one disulfide bridge, sequence written open, run 2): 69.82%

MCIWDSFVPFILC
crude HPLC purity [1]: 55.83%

MCLFDLHLPFIFC
crude HPLC purity [1]: 93.22%

MCLFDSFVPFIFC
crude HPLC purity [1]: 78.93%
final HPLC purity [1]: 83.0%

MCLYDSFLPFIFC
crude HPLC purity [1]: 78.76%

MCQQWNLYTRHWHIC
crude HPLC purity [1]: 64.14%

MCSCFPPLCFLIC
crude HPLC purity: 37.51%

MCSYGSWYGYSYLAC
crude HPLC purity [1]: 83.22%

MCVFDSFLPFIIC
crude HPLC purity [1]: 82.09%

MCVYDIFVPFIIC
crude HPLC purity [1]: 52.63%

MCVYDLFLPFIYC
crude HPLC purity [1]: 67.66%

MCYFDPHFIFIPC
crude HPLC purity [1]: 87.07%

MCYHRHIFQNHWYKCGSGSEE
crude HPLC purity [1]: 50.13%

MCYKWPIRSHLYWLC
crude HPLC purity [1]: 55.16%

MCYRHPHSNPLFWAC
crude HPLC purity [1]: 74.28%

PEPTIDE1{M.C.F.R.W.R.L.F.H.H.L.T.P.F.C.G.S.G.S.D.Y.K.D.D.D.D.K.[am]}$PEPTIDE1,PEPTIDE1,2:R3-15:R3$$$V2.0
crude HPLC purity: 80.99%
final HPLC purity: 53.0%

PEPTIDE1{M.C.I.F.D.I.H.M.P.F.I.P.C.G.S.G.S.D.Y.K.D.D.D.D.K.[am]}$PEPTIDE1,PEPTIDE1,2:R3-13:R3$$$V2.0
crude HPLC purity: 85.5%
final HPLC purity: 95.7%

PEPTIDE1{M.C.I.G.K.W.Y.T.Y.Q.Y.W.T.R.C.G.S.G.S.D.Y.K.D.D.D.D.K.[am]}$PEPTIDE1,PEPTIDE1,2:R3-15:R3$$$V2.0
crude HPLC purity: 100%
final HPLC purity: 81.6%

PEPTIDE1{M.C.I.R.W.P.A.R.Q.P.L.F.W.L.C.G.S.G.S.D.Y.K.D.D.D.D.K.[am]}$PEPTIDE1,PEPTIDE1,2:R3-15:R3$$$V2.0
crude HPLC purity: 81.1%
final HPLC purity: 75.7%

PEPTIDE1{M.C.L.L.W.T.R.H.F.D.R.Y.W.V.C.G.S.G.S.D.Y.K.D.D.D.D.K.[am]}$PEPTIDE1,PEPTIDE1,2:R3-15:R3$$$V2.0
crude HPLC purity: 42.79%
final HPLC purity: 61.4%

PEPTIDE1{M.C.S.N.M.W.K.L.A.N.R.W.W.A.C.G.S.G.S.D.Y.K.D.D.D.D.K.[am]}$PEPTIDE1,PEPTIDE1,2:R3-15:R3$$$V2.0
crude HPLC purity: 69.11%
final HPLC purity: 65.3%

PEPTIDE1{M.C.T.F.D.L.F.L.P.F.I.F.C.G.S.G.S.D.Y.K.D.D.D.D.K.[am]}$PEPTIDE1,PEPTIDE1,2:R3-13:R3$$$V2.0
crude HPLC purity: 41.31%

PEPTIDE1{M.C.T.F.D.T.H.F.P.F.I.T.C.G.S.G.S.D.Y.K.D.D.D.D.K.[am]}$PEPTIDE1,PEPTIDE1,2:R3-13:R3$$$V2.0
crude HPLC purity: 76.88%

PEPTIDE1{M.C.T.K.F.P.W.P.F.P.I.F.W.A.C.G.S.G.S.D.Y.K.D.D.D.D.K.[am]}$PEPTIDE1,PEPTIDE1,2:R3-15:R3$$$V2.0
crude HPLC purity: 23.51%
final HPLC purity: 49.5%

PEPTIDE1{M.C.T.K.F.P.W.P.L.P.I.F.W.A.C.G.S.G.S.D.Y.K.D.D.D.D.K.[am]}$PEPTIDE1,PEPTIDE1,2:R3-15:R3$$$V2.0
crude HPLC purity: 24.21%

PEPTIDE1{M.C.V.F.D.S.F.L.P.F.V.L.C.G.S.G.S.D.Y.K.D.D.D.D.K.[am]}$PEPTIDE1,PEPTIDE1,2:R3-13:R3$$$V2.0
crude HPLC purity: 91.39%

PEPTIDE1{M.C.V.F.D.S.W.L.P.F.V.F.C.G.S.G.S.D.Y.K.D.D.D.D.K.[am]}$PEPTIDE1,PEPTIDE1,2:R3-13:R3$$$V2.0
crude HPLC purity: 78.64%

PEPTIDE1{M.C.V.F.D.S.W.L.P.F.V.Y.C.G.S.G.S.D.Y.K.D.D.D.D.K.[am]}$PEPTIDE1,PEPTIDE1,2:R3-13:R3$$$V2.0
crude HPLC purity: 86.52%

PEPTIDE1{[ac].M.C.A.K.A.F.L.L.W.K.G.K.F.C.G.S.G.S.E.E.G.S.G.S.D.Y.K.D.D.D.D.K.[am]}$PEPTIDE1,PEPTIDE1,3:R3-15:R3$$$V2.0
crude HPLC purity: 12.76%

PEPTIDE1{[ac].M.C.A.K.E.H.L.F.Y.Y.L.L.W.C.G.S.G.S.D.Y.K.D.D.D.D.K.[am]}$PEPTIDE1,PEPTIDE1,3:R3-15:R3$$$V2.0
crude HPLC purity: 45.38%

PEPTIDE1{[ac].M.C.A.K.Y.F.L.I.W.R.A.Y.Q.Q.C.G.S.G.S.D.Y.K.D.D.D.D.K.[am]}$PEPTIDE1,PEPTIDE1,3:R3-16:R3$$$V2.0
crude HPLC purity: 36.14%

PEPTIDE1{[ac].M.C.A.P.K.W.L.I.K.V.L.S.C.G.S.G.S.D.Y.K.D.D.D.D.K.[am]}$PEPTIDE1,PEPTIDE1,3:R3-14:R3$$$V2.0
crude HPLC purity: 60.67%

PEPTIDE1{[ac].M.C.A.V.Y.Y.K.L.W.L.K.H.S.R.C.G.S.G.S.E.E.G.S.G.S.D.Y.K.D.D.D.D.K.[am]}$PEPTIDE1,PEPTIDE1,3:R3-16:R3$$$V2.0
crude HPLC purity: 22.18%

PEPTIDE1{[ac].M.C.D.A.Y.Y.V.R.Y.W.Q.V.L.H.C.G.S.G.S.D.Y.K.D.D.D.D.K.[am]}$PEPTIDE1,PEPTIDE1,3:R3-16:R3$$$V2.0
crude HPLC purity: 47.51%

PEPTIDE1{[ac].M.C.D.K.F.V.K.W.Y.I.V.F.R.H.C.G.S.G.S.E.E.G.S.G.S.D.Y.K.D.D.D.D.K.[am]}$PEPTIDE1,PEPTIDE1,3:R3-16:R3$$$V2.0
crude HPLC purity: 46.62%

PEPTIDE1{[ac].M.C.D.L.Y.T.V.L.W.Y.K.I.Q.K.E.C.G.S.G.S.D.Y.K.D.D.D.D.K.[am]}$PEPTIDE1,PEPTIDE1,3:R3-17:R3$$$V2.0
crude HPLC purity: 26.58%

PEPTIDE1{[ac].M.C.D.S.I.R.A.Q.Y.A.R.W.W.I.C.G.S.G.S.D.Y.K.D.D.D.D.K.[am]}$PEPTIDE1,PEPTIDE1,3:R3-16:R3$$$V2.0
crude HPLC purity: 55.20%

PEPTIDE1{[ac].M.C.D.V.L.L.Y.K.L.F.R.Y.C.G.S.G.S.D.Y.K.D.D.D.D.K.[am]}$PEPTIDE1,PEPTIDE1,3:R3-14:R3$$$V2.0
crude HPLC purity: 77.3%

PEPTIDE1{[ac].M.C.D.W.Y.V.T.I.Y.K.V.L.K.K.C.G.S.G.S.D.Y.K.D.D.D.D.K.[am]}$PEPTIDE1,PEPTIDE1,3:R3-16:R3$$$V2.0
crude HPLC purity: 34.72%

PEPTIDE1{[ac].M.C.E.D.L.F.Y.Y.I.I.N.R.Y.G.C.G.S.G.S.D.Y.K.D.D.D.D.K.[am]}$PEPTIDE1,PEPTIDE1,3:R3-16:R3$$$V2.0
crude HPLC purity: 47.25%

PEPTIDE1{[ac].M.C.E.D.L.F.Y.Y.L.L.F.H.H.C.G.S.G.S.D.Y.K.D.D.D.D.K.[am]}$PEPTIDE1,PEPTIDE1,3:R3-15:R3$$$V2.0
crude HPLC purity: 19.38%

PEPTIDE1{[ac].M.C.E.H.L.F.Y.Y.L.L.V.K.R.Q.C.G.S.G.S.D.Y.K.D.D.D.D.K.[am]}$PEPTIDE1,PEPTIDE1,3:R3-16:R3$$$V2.0
crude HPLC purity: 33.38%

PEPTIDE1{[ac].M.C.E.H.R.H.P.Y.G.H.W.E.Q.C.G.S.G.S.D.Y.K.D.D.D.D.K.[am]}$PEPTIDE1,PEPTIDE1,3:R3-15:R3$$$V2.0
crude HPLC purity: 58.43%

PEPTIDE1{[ac].M.C.E.P.W.I.T.I.Y.K.V.L.K.K.C.G.S.G.S.D.Y.K.D.D.D.D.K.[am]}$PEPTIDE1,PEPTIDE1,3:R3-16:R3$$$V2.0
crude HPLC purity: 0%
final HPLC purity: 79.9%

PEPTIDE1{[ac].M.C.E.Q.R.S.R.W.S.N.Y.W.Y.P.C.G.S.G.S.D.Y.K.D.D.D.D.K.[am]}$PEPTIDE1,PEPTIDE1,3:R3-16:R3$$$V2.0
crude HPLC purity: 69.02%

PEPTIDE1{[ac].M.C.E.V.I.W.Y.K.I.Q.W.R.K.C.G.S.G.S.D.Y.K.D.D.D.D.K.[am]}$PEPTIDE1,PEPTIDE1,3:R3-15:R3$$$V2.0
crude HPLC purity: 38.42%

PEPTIDE1{[ac].M.C.E.V.K.Y.F.L.I.W.K.R.W.C.G.S.G.S.D.Y.K.D.D.D.D.K.[am]}$PEPTIDE1,PEPTIDE1,3:R3-15:R3$$$V2.0
crude HPLC purity: 33.86%

PEPTIDE1{[ac].M.C.E.W.F.Y.Y.H.K.S.W.Y.V.Y.C.G.S.G.S.D.Y.K.D.D.D.D.K.[am]}$PEPTIDE1,PEPTIDE1,3:R3-16:R3$$$V2.0
crude HPLC purity: 38.86%

PEPTIDE1{[ac].M.C.F.A.L.L.Y.K.I.L.S.R.C.G.S.G.S.D.Y.K.D.D.D.D.K.[am]}$PEPTIDE1,PEPTIDE1,3:R3-14:R3$$$V2.0
crude HPLC purity: 61.47%

PEPTIDE1{[ac].M.C.F.K.H.P.W.F.F.A.W.L.C.G.S.G.S.D.Y.K.D.D.D.D.K.[am]}$PEPTIDE1,PEPTIDE1,3:R3-14:R3$$$V2.0
crude HPLC purity: 0%
final HPLC purity: 79.2%

PEPTIDE1{[ac].M.C.F.L.D.H.K.T.K.V.F.V.Y.C.G.S.G.S.D.Y.K.D.D.D.D.K.[am]}$PEPTIDE1,PEPTIDE1,3:R3-15:R3$$$V2.0
crude HPLC purity: 49.84%

PEPTIDE1{[ac].M.C.F.W.P.I.W.Y.K.F.M.A.C.G.S.G.S.D.Y.K.D.D.D.D.K.[am]}$PEPTIDE1,PEPTIDE1,3:R3-14:R3$$$V2.0
crude HPLC purity: 76.61%

PEPTIDE1{[ac].M.C.F.W.R.F.F.P.A.L.L.A.C.G.S.G.S.D.Y.K.D.D.D.D.K.[am]}$PEPTIDE1,PEPTIDE1,3:R3-14:R3$$$V2.0
crude HPLC purity: 35.76%

PEPTIDE1{[ac].M.C.G.H.F.S.I.T.W.F.K.W.C.G.S.G.S.D.Y.K.D.D.D.D.K.[am]}$PEPTIDE1,PEPTIDE1,3:R3-14:R3$$$V2.0
crude HPLC purity: 63.78%

PEPTIDE1{[ac].M.C.G.V.L.L.Y.K.V.M.R.V.C.G.S.G.S.D.Y.K.D.D.D.D.K.[am]}$PEPTIDE1,PEPTIDE1,3:R3-14:R3$$$V2.0
crude HPLC purity: 54.21%

End groups of sequences in plain letters are not given here. Some peptides are written in HELM: one residue between dots, names in brackets for other building blocks, links after the first $.
